Data as given in PubChem BioAssay AID1259405 (NCATS, 2018).
Here is a random part of about 50,000 deposited reagents. About 4,000 of them (8%) were called active. 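Mouse siRNA library applied to hamster cells; one well for each siRNA.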 The numbers tell different reagents against one gene apart. No sequences are given here.

Assay: 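Knock-downs that lift recombinant protein yield in hamster ovary cells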 (primary screen)
Cells: Chinese hamster CHO-K1 ovary cells with stable secreted eGFP expression
Reagent: single siRNA against mouse genes, 0.8 pmol siRNA per well (2 µl of 400 nM stock)
Timing: 3 days
Detection: 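Per-well intracellular GFP measured by laser scanning cytometry, plus viability from ATP luminescence, each relative to plate median of non-targeting control wells, in %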
Scale: GFP, % of control: higher = more GFP per well, higher productivity; viability (ATP), % of control: higher = more viable cells (more ATP)
Active means: 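a knock-down is called active if GFP reaches 120% or more of non-targeting control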

For Cep43 (GeneID 75296) #1, the entry reads GFP, % of control 70.1; viability (ATP), % of control 77.6; inactive.
Silencing of Cep43 (GeneID 75296) #2 resulted in: GFP, % of control 36.3; viability (ATP), % of control 50.9; inactive.
After knock-down of Cep43 (GeneID 75296) #3 the results were GFP, % of control 40.4; viability (ATP), % of control 63.3; inactive.
Silencing of Rxfp3 (GeneID 239336) #1 came out at: GFP, % of control 130; viability (ATP), % of control 104; active.
Knock-down of Rxfp3 (GeneID 239336) #2 gave: GFP, % of control 72.6; viability (ATP), % of control 80.1; inactive.
With knock-down of Rxfp3 (GeneID 239336) #3 the results were GFP, % of control 72.9; viability (ATP), % of control 67.5; inactive.
Cmpk1 (GeneID 66588) gave GFP, % of control 87.1; viability (ATP), % of control 70.2; inactive.
Silencing of Dph2 (GeneID 67728) #1 gave: GFP, % of control 92.6; viability (ATP), % of control 97.1; inactive.
After knock-down of Dph2 (GeneID 67728) #2, the screen gave GFP, % of control 112; viability (ATP), % of control 90.8; inactive.
For Dph2 (GeneID 67728) #3, the values are GFP, % of control 120; viability (ATP), % of control 70.3; active.
Depletion of Tnfsf11 (GeneID 21943) #1 came out at: GFP, % of control 88.8; viability (ATP), % of control 106; inactive.
With knock-down of Tnfsf11 (GeneID 21943) #2, the record shows GFP, % of control 104; viability (ATP), % of control 110; inactive.
Against Arhgap31 (GeneID 12549) #1, the entry reads GFP, % of control 86.2; viability (ATP), % of control 66.5; inactive.
Arhgap31 (GeneID 12549) #2 showed GFP, % of control 67.6; viability (ATP), % of control 75.1; inactive.
Arhgap31 (GeneID 12549) #3 showed GFP, % of control 85.9; viability (ATP), % of control 70.1; inactive.
For Cldn2 (GeneID 12738) #1, the entry reads GFP, % of control 73.3; viability (ATP), % of control 74.8; inactive.
Cldn2 (GeneID 12738) #2 scored GFP, % of control 85.3; viability (ATP), % of control 82.8; inactive.
With knock-down of Cldn2 (GeneID 12738) #3 the results were GFP, % of control 52.9; viability (ATP), % of control 65.3; inactive.

Active calls, of those listed so far:
Rxfp3 (GeneID 239336) #1 | GFP, % of control: 130; viability (ATP), % of control: 104; Call: active
Dph2 (GeneID 67728) #3 | GFP, % of control: 120; viability (ATP), % of control: 70.3; Call: active
